For one test, the target named is T1, HA-NAT10 K274R (UniProt Q9H0A0).
T1 sequence: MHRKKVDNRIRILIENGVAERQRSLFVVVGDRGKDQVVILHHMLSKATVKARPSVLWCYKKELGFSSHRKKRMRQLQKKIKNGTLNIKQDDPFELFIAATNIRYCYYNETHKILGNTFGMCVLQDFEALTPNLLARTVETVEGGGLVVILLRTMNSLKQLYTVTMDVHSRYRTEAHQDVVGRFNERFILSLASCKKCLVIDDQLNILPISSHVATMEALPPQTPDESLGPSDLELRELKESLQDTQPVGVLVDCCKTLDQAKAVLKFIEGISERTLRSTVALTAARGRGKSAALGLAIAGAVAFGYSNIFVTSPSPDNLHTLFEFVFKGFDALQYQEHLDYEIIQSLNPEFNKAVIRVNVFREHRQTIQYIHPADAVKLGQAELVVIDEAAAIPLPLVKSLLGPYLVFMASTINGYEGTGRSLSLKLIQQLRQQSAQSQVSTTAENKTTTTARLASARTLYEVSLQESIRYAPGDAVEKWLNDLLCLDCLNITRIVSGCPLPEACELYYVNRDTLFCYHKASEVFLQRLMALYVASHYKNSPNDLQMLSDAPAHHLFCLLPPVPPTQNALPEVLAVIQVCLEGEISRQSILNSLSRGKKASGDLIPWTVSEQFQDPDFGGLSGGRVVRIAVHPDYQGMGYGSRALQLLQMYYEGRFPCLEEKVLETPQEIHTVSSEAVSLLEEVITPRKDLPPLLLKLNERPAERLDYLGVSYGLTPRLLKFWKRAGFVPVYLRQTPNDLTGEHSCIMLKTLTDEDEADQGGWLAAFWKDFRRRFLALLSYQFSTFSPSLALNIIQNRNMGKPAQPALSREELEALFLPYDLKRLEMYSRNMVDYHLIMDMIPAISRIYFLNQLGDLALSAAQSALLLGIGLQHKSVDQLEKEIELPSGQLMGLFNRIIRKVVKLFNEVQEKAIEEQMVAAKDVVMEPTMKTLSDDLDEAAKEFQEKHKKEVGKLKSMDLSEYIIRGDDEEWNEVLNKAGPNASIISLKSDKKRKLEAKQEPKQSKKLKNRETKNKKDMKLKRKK
The test can be described thus: co-IP; HA-NAT10 (WT or K-R mutants) co-expressed with MYC-Ub and Flag-UBR5; MG132 (100 nM, 8 h); IP with HA antibody, immunoblotting.

Sequences of proteins named here, by UniProt entry; tags and fusion partners are left off.
UniProt O95071: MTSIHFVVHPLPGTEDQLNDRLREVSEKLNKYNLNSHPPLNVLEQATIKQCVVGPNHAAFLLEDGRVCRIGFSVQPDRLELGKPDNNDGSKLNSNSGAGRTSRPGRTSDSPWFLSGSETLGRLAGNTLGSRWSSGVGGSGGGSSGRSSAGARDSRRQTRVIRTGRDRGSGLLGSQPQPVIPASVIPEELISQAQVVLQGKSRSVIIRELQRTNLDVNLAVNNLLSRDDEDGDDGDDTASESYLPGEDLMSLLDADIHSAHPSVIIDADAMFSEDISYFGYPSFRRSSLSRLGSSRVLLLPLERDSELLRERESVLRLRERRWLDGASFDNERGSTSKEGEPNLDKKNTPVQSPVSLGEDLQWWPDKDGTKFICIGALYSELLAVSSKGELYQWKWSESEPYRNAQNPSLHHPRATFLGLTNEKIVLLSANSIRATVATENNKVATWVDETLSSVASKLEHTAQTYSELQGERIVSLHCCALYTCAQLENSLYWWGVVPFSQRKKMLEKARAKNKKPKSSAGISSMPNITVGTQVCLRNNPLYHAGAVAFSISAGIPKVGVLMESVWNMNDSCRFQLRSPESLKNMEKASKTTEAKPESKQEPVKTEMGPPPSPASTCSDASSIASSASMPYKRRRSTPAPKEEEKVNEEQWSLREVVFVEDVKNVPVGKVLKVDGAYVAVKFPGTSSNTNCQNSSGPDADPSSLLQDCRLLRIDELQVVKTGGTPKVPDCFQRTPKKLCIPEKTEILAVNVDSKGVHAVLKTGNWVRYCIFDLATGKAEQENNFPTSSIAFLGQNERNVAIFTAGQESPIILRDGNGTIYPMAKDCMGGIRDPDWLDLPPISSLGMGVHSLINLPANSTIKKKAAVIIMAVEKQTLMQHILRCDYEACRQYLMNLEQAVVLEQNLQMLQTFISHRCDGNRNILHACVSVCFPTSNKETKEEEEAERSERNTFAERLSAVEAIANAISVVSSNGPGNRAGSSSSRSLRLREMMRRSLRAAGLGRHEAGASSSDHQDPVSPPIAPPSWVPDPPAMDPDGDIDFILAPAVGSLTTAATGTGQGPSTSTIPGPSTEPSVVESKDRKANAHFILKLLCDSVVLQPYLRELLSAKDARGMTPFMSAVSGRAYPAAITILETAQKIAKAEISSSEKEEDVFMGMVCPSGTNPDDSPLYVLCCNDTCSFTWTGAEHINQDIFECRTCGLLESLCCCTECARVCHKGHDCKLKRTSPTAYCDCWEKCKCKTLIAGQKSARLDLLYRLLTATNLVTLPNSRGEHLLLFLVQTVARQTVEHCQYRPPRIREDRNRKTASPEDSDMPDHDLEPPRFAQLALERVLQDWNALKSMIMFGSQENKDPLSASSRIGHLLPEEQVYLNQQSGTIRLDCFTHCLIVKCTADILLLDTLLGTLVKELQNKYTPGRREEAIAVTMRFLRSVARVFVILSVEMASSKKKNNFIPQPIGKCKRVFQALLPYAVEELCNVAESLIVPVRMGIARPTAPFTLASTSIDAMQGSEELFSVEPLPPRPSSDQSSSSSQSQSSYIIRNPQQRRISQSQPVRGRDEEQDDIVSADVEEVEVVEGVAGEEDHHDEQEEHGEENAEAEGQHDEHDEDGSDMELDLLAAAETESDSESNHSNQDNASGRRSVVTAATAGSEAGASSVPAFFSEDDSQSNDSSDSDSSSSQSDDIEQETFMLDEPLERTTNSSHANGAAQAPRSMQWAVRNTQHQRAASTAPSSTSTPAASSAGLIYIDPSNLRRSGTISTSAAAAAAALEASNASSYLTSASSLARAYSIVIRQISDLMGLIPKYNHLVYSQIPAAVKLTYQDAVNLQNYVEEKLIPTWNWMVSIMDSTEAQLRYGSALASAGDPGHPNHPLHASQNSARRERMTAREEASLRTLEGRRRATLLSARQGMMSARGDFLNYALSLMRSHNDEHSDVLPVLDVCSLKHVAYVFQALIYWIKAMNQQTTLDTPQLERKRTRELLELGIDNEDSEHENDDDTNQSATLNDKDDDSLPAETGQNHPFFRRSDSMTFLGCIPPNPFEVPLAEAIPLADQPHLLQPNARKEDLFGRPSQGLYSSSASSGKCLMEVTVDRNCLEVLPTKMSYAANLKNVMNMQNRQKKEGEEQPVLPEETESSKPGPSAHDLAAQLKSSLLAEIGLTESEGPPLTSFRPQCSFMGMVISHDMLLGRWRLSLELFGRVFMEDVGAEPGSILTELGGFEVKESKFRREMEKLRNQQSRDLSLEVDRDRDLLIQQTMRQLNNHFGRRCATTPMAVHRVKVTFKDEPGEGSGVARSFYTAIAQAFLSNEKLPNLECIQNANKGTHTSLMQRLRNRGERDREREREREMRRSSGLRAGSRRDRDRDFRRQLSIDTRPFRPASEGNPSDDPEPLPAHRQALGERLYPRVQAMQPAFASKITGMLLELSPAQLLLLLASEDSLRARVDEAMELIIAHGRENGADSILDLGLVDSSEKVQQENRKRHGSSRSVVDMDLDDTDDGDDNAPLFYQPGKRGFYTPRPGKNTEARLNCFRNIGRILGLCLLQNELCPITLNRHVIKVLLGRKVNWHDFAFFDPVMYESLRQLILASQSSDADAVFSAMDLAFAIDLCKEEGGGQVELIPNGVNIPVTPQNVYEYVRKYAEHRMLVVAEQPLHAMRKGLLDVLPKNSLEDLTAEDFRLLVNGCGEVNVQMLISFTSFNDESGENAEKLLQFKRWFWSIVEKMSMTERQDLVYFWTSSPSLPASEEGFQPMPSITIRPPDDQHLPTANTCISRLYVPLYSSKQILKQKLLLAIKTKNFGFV

The target of the next test is T2, HA-NAT10 K426R (UniProt Q9H0A0).
T2 sequence: T1 sequence with R274K, K426R
The description is as above.

Residue numbers refer to the chain shown, from its start. These are yes or no findings as the source states them, for the method shown. In cells and extracts the contact can be indirect. Some entries that bind do so weakly or less than the wild type. Sequences can lack the tags named with a protein.

In the case of FLAG-UBR5 (from UniProt O95071 1-2799), the binding entry in the test with HA-NAT10 K274R and in the test with HA-NAT10 K426R was “binds” each time.

Source of the values: publication PMC11792579.
